Paper doi:10.1101/2020.06.23.167247

Legend:
[1] = molecular target: T1, GDP-D-mannose epimerase (GME), yeast two-hybrid fusions (Arabidopsis thaliana) (UniProt Q93VR3); test: two-hybrid
T1 sequence: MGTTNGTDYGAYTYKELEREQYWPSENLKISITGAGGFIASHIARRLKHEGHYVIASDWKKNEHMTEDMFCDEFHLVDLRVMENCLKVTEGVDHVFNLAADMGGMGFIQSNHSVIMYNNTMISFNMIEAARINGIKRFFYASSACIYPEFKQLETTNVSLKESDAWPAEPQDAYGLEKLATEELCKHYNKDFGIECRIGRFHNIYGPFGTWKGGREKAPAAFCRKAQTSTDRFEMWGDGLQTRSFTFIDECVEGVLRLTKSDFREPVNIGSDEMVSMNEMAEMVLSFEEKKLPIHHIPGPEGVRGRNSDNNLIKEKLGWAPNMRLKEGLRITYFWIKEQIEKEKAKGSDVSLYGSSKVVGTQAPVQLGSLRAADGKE

[2] = molecular target: T2, GDP-L-galactose phosphorylase (VTC2), yeast two-hybrid fusions (Arabidopsis thaliana) (UniProt Q8RWE8); test: two-hybrid
T2 sequence: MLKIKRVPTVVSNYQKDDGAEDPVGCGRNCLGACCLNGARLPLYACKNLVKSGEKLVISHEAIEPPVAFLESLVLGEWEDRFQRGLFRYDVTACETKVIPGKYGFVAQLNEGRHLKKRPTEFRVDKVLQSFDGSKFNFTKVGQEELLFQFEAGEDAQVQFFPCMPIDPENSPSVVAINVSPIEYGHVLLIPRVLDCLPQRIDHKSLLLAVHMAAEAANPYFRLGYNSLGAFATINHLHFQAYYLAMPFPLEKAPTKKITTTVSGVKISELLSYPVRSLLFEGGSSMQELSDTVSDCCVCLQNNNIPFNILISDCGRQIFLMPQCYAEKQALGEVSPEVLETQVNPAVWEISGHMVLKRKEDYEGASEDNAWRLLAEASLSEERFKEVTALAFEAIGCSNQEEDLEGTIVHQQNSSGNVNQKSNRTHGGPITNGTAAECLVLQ

[3] = molecular target: T3, L-galactono-1,4-lactone dehydrogenase (L-GalLDH), yeast two-hybrid fusions (Arabidopsis thaliana) (UniProt Q9SU56); test: two-hybrid
T3 sequence: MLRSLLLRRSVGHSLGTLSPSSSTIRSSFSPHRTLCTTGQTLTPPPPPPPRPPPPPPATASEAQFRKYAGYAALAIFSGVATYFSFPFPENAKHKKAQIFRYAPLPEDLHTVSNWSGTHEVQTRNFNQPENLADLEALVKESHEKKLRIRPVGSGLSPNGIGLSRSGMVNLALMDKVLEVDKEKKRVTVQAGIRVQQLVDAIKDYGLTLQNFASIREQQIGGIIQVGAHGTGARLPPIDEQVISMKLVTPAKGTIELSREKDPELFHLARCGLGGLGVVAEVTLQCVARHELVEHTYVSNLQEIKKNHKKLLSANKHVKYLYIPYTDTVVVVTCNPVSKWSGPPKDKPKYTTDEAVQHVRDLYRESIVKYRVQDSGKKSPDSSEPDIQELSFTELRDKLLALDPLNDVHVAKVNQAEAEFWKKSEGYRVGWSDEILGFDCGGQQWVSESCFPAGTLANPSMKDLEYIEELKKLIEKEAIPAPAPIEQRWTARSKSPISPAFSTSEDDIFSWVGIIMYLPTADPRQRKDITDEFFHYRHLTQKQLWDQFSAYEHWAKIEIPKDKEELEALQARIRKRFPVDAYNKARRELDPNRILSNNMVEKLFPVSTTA

[4] = molecular target: T4, L-galactose 1-phosphate phosphatase (VTC4), yeast two-hybrid fusions (Arabidopsis thaliana) (UniProt Q9M8S8); test: two-hybrid
T4 sequence: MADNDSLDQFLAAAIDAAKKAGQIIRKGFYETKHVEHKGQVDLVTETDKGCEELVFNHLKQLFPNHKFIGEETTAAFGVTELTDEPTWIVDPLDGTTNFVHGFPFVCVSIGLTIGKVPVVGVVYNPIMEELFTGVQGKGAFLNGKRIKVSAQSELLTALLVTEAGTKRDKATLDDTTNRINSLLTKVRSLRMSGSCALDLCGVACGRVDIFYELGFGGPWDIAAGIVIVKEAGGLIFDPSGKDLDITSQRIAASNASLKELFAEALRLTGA

[5] = molecular target: T5, L-galactose dehydrogenase (L-GalDH), yeast two-hybrid fusions (Arabidopsis thaliana) (UniProt O81884); test: two-hybrid
T5 sequence: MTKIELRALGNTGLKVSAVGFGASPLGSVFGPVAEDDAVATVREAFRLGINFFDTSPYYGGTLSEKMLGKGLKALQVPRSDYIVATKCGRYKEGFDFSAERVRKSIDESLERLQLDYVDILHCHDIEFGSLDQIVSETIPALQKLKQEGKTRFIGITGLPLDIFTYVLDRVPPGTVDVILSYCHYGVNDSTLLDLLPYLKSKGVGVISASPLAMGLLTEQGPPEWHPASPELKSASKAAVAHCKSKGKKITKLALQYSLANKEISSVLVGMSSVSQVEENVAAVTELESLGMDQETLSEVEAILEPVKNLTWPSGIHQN

[6] = molecular target: VTC1-GFP (Arabidopsis thaliana); test: co-IP

binding [1]: no binding
binding [2]: no binding
binding [3]: no binding
binding [4]: no binding
binding [5]: no binding
Molecule: GDP-D-mannose pyrophosphorylase (VTC1), yeast two-hybrid fusions (Arabidopsis thaliana) (enzyme)

binding [6]: binds
B1: L-GalDH-HA (enzyme, UniProt O81884 1-319)
chain: T5 sequence

binding [6]: binds
B2: GME-HA (enzyme, UniProt Q93VR3 1-377)
chain: T1 sequence

No constants are given. Whether binding was seen depends on the method and setting. For some of these results: In cells and extracts the contact can be indirect. For some of these results: A result given as binding can be weak or reduced; the word gives no strength. Sequences can lack the tags named with a protein. Each block holds one molecule with its values, some of them ahead of it.
